For data set [1], the target named is T1, BRCA2OB (human) (UniProt P51587).
T1 sequence (looked up): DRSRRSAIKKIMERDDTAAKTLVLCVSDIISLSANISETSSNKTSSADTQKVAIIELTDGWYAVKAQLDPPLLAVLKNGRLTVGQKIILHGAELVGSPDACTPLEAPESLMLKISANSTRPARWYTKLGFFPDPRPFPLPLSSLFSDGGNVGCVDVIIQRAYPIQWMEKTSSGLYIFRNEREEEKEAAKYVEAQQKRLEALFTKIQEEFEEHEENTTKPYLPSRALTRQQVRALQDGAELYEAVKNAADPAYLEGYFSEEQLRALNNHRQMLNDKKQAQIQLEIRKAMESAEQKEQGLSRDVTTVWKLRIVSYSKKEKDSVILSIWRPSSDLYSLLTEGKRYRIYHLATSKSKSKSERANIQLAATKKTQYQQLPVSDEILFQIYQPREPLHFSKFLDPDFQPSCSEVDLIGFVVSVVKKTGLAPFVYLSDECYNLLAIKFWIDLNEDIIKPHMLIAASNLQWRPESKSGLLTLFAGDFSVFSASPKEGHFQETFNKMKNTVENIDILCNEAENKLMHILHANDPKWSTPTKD
Description: EMSA. The conditions noted are these: EMSA: 10 nM probe, 50 mM Tris-HCl pH 7.5, 100 mM KCl, 2 mM b-ME, 10% glycerol, probe pre-incubated 37 C, gel 4 C (RAD51: +1 mM MgCl2, 2 mM ATP), recombinant protein, residues 2665-3197, protein details: N-MBP, C-6xHis, label: 5' 32P, folded or branched DNA.

Data set [2] addresses T1, BRCA2OB (human). Description: smFRET. The conditions noted are these: 3' amino, stem 5' amino, smFRET: 50 mM Tris-HCl pH 7.9, 100 mM KCl, 20 mM NaCl, 1 mM DTT, 0.1 mg/ml BSA, 9% glycerol, 37 C, recombinant protein, residues 2665-3197, protein details: N-MBP, C-6xHis, label: 3' Cy3, stem 5' Cy5, 3' biotin.
Data set [3] addresses RAD51 (human) (UniProt Q06609). Kind of data set: EMSA. The conditions noted are these: 1 mM MgCl2, 2 mM ATP, complex only at 250 nM RAD51, 25 nM BRCA2OB present; EMSA: 10 nM probe, 50 mM Tris-HCl pH 7.5, 100 mM KCl, 2 mM b-ME, 10% glycerol, probe pre-incubated 37 C, gel 4 C (RAD51: +1 mM MgCl2, 2 mM ATP); commercial protein; label: 5' 32P; folded or branched DNA. (In general: Mobility shift assays separate free from complexed probe on a gel.)

Data set [4] addresses T2, BRCA2OB-R2973C (human) (UniProt P51587).
T2 sequence (looked up): T1 sequence (looked up) with R309C
Kind of data set: EMSA. The conditions noted are these: EMSA: 10 nM probe, 50 mM Tris-HCl pH 7.5, 100 mM KCl, 2 mM b-ME, 10% glycerol, probe pre-incubated 37 C, gel 4 C (RAD51: +1 mM MgCl2, 2 mM ATP), recombinant protein, residues 2665-3197, protein details: N-MBP, C-6xHis, label: 5' 32P, folded or branched DNA.

Data set [5] addresses T3, BRCA2OB-D2723H (human) (UniProt P51587).
T3 sequence (looked up): T1 sequence (looked up) with D59H
Kind of data set: EMSA. The conditions noted are these: EMSA: 10 nM probe, 50 mM Tris-HCl pH 7.5, 100 mM KCl, 2 mM b-ME, 10% glycerol, probe pre-incubated 37 C, gel 4 C (RAD51: +1 mM MgCl2, 2 mM ATP), recombinant protein, residues 2665-3197, protein details: N-MBP, C-6xHis, label: 5' 32P, folded or branched DNA.

Data set [6] addresses 2xMBP-BRCA2 R2973C (UniProt P51587). Kind of data set: pull-down, dot blot. The conditions noted are these: abrogated; smFRET: 50 mM Tris-HCl pH 7.9, 100 mM KCl, 20 mM NaCl, 1 mM DTT, 0.1 mg/ml BSA, 9% glycerol, 37 C; protein in a lysate after overexpression; residues 1-3418; protein details: 2xMBP; label: 5' 32P; folded or branched DNA.
The target of data set [7] is EGFP-BRCA2 full length (NFLAP-BRCA2) (UniProt P51587). Description: pull-down, dot blot. The conditions noted are these: 100 mM KCl, smFRET: 50 mM Tris-HCl pH 7.9, 100 mM KCl, 20 mM NaCl, 1 mM DTT, 0.1 mg/ml BSA, 9% glycerol, 37 C, protein in a lysate after overexpression, residues 1-3418, protein details: NFLAP (EGFP), label: 5' 32P, folded or branched DNA.
For data set [8], the target named is 2xMBP-BRCA2 full length (UniProt P51587). Description: pull-down, dot blot. The conditions noted are these: smFRET: 50 mM Tris-HCl pH 7.9, 100 mM KCl, 20 mM NaCl, 1 mM DTT, 0.1 mg/ml BSA, 9% glycerol, 37 C, protein in a lysate after overexpression, residues 1-3418, protein details: 2xMBP, label: 5' 32P, folded or branched DNA.

Substitutions are numbered along the chain they refer to. For part of these data: The comparison behind a weaker result is the experiment's own reference, which may not be listed here. For part of these data: Tags and fusion partners may be left off the protein sequences shown. For part of these data: Where cells or extracts were used, other partners may take part. For part of these data: Negatives hold for the conditions tested. For part of these data: At least one verdict was read from the data and is not stated in words by the source. For part of these data: The exact form of at least one protein or probe is not confirmed.

With GAACTGGGACTGGGATAGGGCTAGGGAAGC [GGG4], the binding result in data set [1] is on record as “binds more weakly”.

On to “GCGTGGCACCGGTAATAGGAGATAGGAGAGGTAAGGGTAAGGGTAAGGGTAAGGGTAAG / TCTCCTATCTCCTATTACCGGTGCCACGC [TelG5TAA smFRET]”, for which the binding result in data set [2] (lower bound fraction, 0.1 and 1 uM) is listed as “binds more weakly”.

In the case of “GCGTGGCACCGGTAATAGGAGATAGGAGAGGTTAGGGTTAGGGTTAGTGTTAGGGTTAG / TCTCCTATCTCCTATTACCGGTGCCACGC [TelG5-G3 smFRET]”, the binding result in data set [2] (1 uM BRCA2OB) is recorded as “binds”.

As to “GCGTGGCACCGGTAATAGGAGATAGGAGAGGTTTGGGTTTGGGTTTGTGTTTGGGTTTG / TCTCCTATCTCCTATTACCGGTGCCACGC [TelG5TTT-G3 smFRET]”, the binding result in data set [2] (1 uM BRCA2OB) is reported as “binds”.

In the case of “GGTAAGGGTAAGGGTAAGGGTAAGGGTAAG [TelG5TAA]”, the binding result in data set [1] (weakest, if at all, 100 mM KCl) was “binds more weakly”.

In the case of GGTTAGGGTTAGGGTTAGGGTTAG [TelG4], the binding result in data set [1] (slight binding, 100 mM KCl) is “binds more weakly”.

Regarding GGTTAGGGTTAGGGTTAGGGTTAGGGTTAG [TelG5], the binding result is recorded as “binds more weakly” in data set [3]; “binds more weakly” in data set [1] (PDS (G4 ligand) present, dose-dependent); “binds more weakly” in data set [4]; “binds more weakly” in data set [5]; “no binding” in data set [6]; “binds” in data set [7] (third). In addition, the binding result in data set [8] (third) is recorded as “binds”.

With “GGTTAGGGTTAGGGTTAGTGTTAGGGTTAG [TelG5-G3]”, the binding result in data set [4] (abrogated similarly) is on record as “binds more weakly”; in data set [5] (abrogated similarly), “binds more weakly”; in data set [6] it was “no binding”; in data set [8] (second), “binds”.

For “GGTTGGGGTTGGGGTTGGGGTTGGGGTTGG [TelG5T2G4]”, the binding result in data set [4] is given as “binds more weakly”; in data set [5], “binds more weakly”; in data set [7] (second) it was “binds”.

In the case of “GGTTTGGGTTTGGGTTTGGGTTTGGGTTTG [TelG5TTT]”, the binding result in data set [3] is reported as “binds more weakly”; in data set [4], “binds more weakly”; in data set [5] it was “binds more weakly”; in data set [6] it was “no binding”; in data set [7] (strongest) it was “binds”; in data set [8] (strongest), “binds”.

On to TTGAGGGTGGGGAGGGTGGGGAATT [c-myc], for which, in data set [1], the binding result is given as “binds more weakly”.

The record behind these values is article PMC9192595.
